Measured values as given in article PMC8017763.
No constants are given. Whether binding was seen depends on the method and setting. In cells and extracts the contact can be indirect. Some binding calls cover weakened binding; strength is not graded here.

Biological target: T1, Beclin-1 (mouse (endogenous in peritoneal macrophages)), O88597
T1 chain: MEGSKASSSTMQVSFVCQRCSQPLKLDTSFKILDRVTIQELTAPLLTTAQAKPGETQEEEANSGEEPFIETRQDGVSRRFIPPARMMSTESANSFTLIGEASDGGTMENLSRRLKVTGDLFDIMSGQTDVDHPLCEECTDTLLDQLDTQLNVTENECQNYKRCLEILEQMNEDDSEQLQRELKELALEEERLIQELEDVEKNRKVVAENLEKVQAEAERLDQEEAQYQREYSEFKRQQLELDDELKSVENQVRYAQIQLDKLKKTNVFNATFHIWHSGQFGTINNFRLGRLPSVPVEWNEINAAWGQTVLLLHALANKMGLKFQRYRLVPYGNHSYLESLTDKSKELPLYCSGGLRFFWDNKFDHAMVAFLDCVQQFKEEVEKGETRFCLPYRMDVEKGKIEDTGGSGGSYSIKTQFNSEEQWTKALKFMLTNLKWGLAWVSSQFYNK
Test: co-IP; whole cell lysates of mouse peritoneal macrophages; immunoprecipitation with Beclin-1 antibody, Western blot with Bcl-2 antibody; cells with or without ABT-263 treatment; mouse serum as negative control
Details: remark: other sources report otherwise

B1: Bcl-2, P10417 1-236 (protein)
chain: MAQAGRTGYDNREIVMKYIHYKLSQRGYEWDAGDADAAPLGAAPTPGIFSFQPESNPMPAVHRDMAARTSPLRPLVATAGPALSPVPPVVHLTLRRAGDDFSRRYRRDFAEMSSQLHLTPFTARGRFATVVEELFRDGVNWGRIVAFFEFGGVMCVESVNREMSPLVDNIALWMTEYLNRHLHTWIQDNGGWDAFVELYGPSMRPLFDFSWLSLKTLLSLALVGACITLGAYLGHK
- binding: binds
